What follows are substances tested on HLA molecules from shock-frozen tissue samples (CRC, other tumors, normal tissues) (assay: Identification and label-free relative LC-MS quantitation of HLA-presented tumor associated peptides (presentation profiles, XPRESIDENT)). Settings: additional tumor types: over-presented on more than 5% of measured tumor samples, or presented on more than 5% with ratio of geometric means tumor vs normal larger than 3.
Set-up: species or system human; key to Peptide Presentation (presentation score): very highly over-presented on tumors compared to a panel of normal tissues (+++); highly over-presented on tumors compared to a panel of normal tissues (++); over-presented on tumors compared to a panel of normal tissues (+)
“34 (ILLEKSVSV; listed as Homo sapiens) [compound 34]” was tested, and the Other relevant organs/diseases was “Ovary”. For “242 (RLEEDDGDVAM; listed as Homo sapiens) [compound 242]”, the Other relevant organs/diseases was “Lung, Kidney, Brain, Liver, Pancreas, Leukocytes, Breast, Melanoma”. For “162 (KLMDYIDEL; listed as Homo sapiens) [compound 162]”, the Other relevant organs/diseases was “Brain, Esophagus”. “169 (YLAHFIEGL; listed as Homo sapiens) [compound 169]” was tested, and the Other relevant organs/diseases was “Brain, Liver, Leukocytes, Esophagus”. For “199 (FLLEREQLL; listed as Homo sapiens) [compound 199]”, the Other relevant organs/diseases was “Kidney, Leukocytes, Melanoma”. For “251 (SLLQATDFMSL; listed as Homo sapiens) [compound 251]”, the Other relevant organs/diseases was “Kidney, Pancreas, Esophagus”. For “195 (LLLGERVAL; listed as Homo sapiens) [compound 195]”, the Other relevant organs/diseases was “Liver, Ovary”. In the case of “249 (ALYGRLEVV; listed as Homo sapiens) [compound 249]”, the Other relevant organs/diseases is reported as “MCC, Ovary, Esophagus”. In the case of “227 (LTAPPEALLMV; listed as Homo sapiens) [compound 227]”, the Other relevant organs/diseases is reported as “Lung, Kidney, Brain, Liver, Pancreas, Leukocytes, Ovary, Esophagus”. For “101 (GLSEGHTFQV; listed as Homo sapiens) [compound 101]”, the Other relevant organs/diseases was “Prostate”. “157 (SLIERDLKL; listed as Homo sapiens) [compound 157]” was tested, and the Other relevant organs/diseases was “Lung, Kidney, Brain, Liver, Esophagus”. In the case of “174 (ILLDDNMQIRL; listed as Homo sapiens) [compound 174]”, the Other relevant organs/diseases is reported as “Liver, Melanoma, Ovary”.

Same assay, conditions: all samples with detectable presentation, all tumor types
“SEQ ID NO.: 192: peptide found in MMP12 (gene looked up) (KIQEMQHFL; listed as Homo sapiens)” was tested, and the “number of cancer tissues with detectable presentation of the peptide” value was 44.

Same assay, conditions: over-presentation on more than 5% of the measured tumor samples, or presentation on more than 5% of the measured tumor samples with ratio of geometric means tumor vs normal tissues larger than 3
In the case of “34 (ILLEKSVSV; listed as Homo sapiens) [compound 34]”, the “Additional Entities (additional tumor types on which the peptide was found)” value (“Additional Entities” for short) is reported as “BRCA, Melanoma, Esophageal Cancer, Urinary bladder cancer”. “78 (ALDPELLLL; listed as Homo sapiens) [compound 78]” was tested, and the “Additional Entities” value was “AML”. “36 (GLLESPSIFNFTA; listed as Homo sapiens) [compound 36]” was tested, and the “Additional Entities” value was “BRCA”. “162 (KLMDYIDEL; listed as Homo sapiens) [compound 162]” was tested, and the “Additional Entities” value was “NSCLC, BRCA, Melanoma, Urinary bladder cancer, Gallbladder Cancer, Bile Duct Cancer, NHL”. With “169 (YLAHFIEGL; listed as Homo sapiens) [compound 169]” the “Additional Entities” value was “Urinary bladder cancer, OC”. “114 (TAVGHALVL; listed as Homo sapiens) [compound 114]” was tested, and the “Additional Entities” value was “BRCA, Melanoma, Gallbladder Cancer, Bile Duct Cancer”. With “93 (SLQELRLLL; listed as Homo sapiens) [compound 93]” the “Additional Entities” value was “SCLC”. “174 (ILLDDNMQIRL; listed as Homo sapiens) [compound 174]” was tested, and the “Additional Entities” value was “SCLC, CLL, Urinary bladder cancer, AML”.

Same assay, conditions: over-presentation on tumors compared to a panel of normal tissues
“34 (ILLEKSVSV; listed as Homo sapiens) [compound 34]” was tested, and the “Peptide Presentation (presentation score)” value (shortened to “Peptide Presentation”) was “+++”. With “242 (RLEEDDGDVAM; listed as Homo sapiens) [compound 242]” the “Peptide Presentation” value was “++”. With “78 (ALDPELLLL; listed as Homo sapiens) [compound 78]” the “Peptide Presentation” value was “+”. “36 (GLLESPSIFNFTA; listed as Homo sapiens) [compound 36]” was tested, and the “Peptide Presentation” value was “+++”. For “162 (KLMDYIDEL; listed as Homo sapiens) [compound 162]”, the “Peptide Presentation” value was “++”. In the case of “30 (GLSSAYGGL; listed as Homo sapiens) [compound 30]”, the “Peptide Presentation” value is reported as “+++”. In the case of “73 (YLFDIAVSM; listed as Homo sapiens) [compound 73]”, the “Peptide Presentation” value is reported as “++”. “199 (FLLEREQLL; listed as Homo sapiens) [compound 199]” was tested, and the “Peptide Presentation” value was “+++”. In the case of “195 (LLLGERVAL; listed as Homo sapiens) [compound 195]”, the “Peptide Presentation” value is reported as “+++”. In the case of “249 (ALYGRLEVV; listed as Homo sapiens) [compound 249]”, the “Peptide Presentation” value is reported as “+”. With “227 (LTAPPEALLMV; listed as Homo sapiens) [compound 227]” the “Peptide Presentation” value was “++”. With “93 (SLQELRLLL; listed as Homo sapiens) [compound 93]” the “Peptide Presentation” value was “+”. In the case of “157 (SLIERDLKL; listed as Homo sapiens) [compound 157]”, the “Peptide Presentation” value is reported as “++”.
